Values of other authors, collected in patent US20130011480A1, “CYTOTOXIC THERAPY BY PROTON FLUX MODULATION” (priority 2011, published 2013).
At least one compound was matched to its structure with a doubt left.

Key:
[1] = test system: human melanoma cell cultures; details: 0.1 mM; cited from earlier work
electron transport = details: cited from earlier work
[2] = test system: MCF-7 human breast cancer cells; details: cited from earlier work

SMILES	increase in glycolysis achieved with high glucose exposure [1]	uncoupling activity at pH 6.4 versus pH 7.4 (electron transport)	apoptosis [2]	decrease in intracellular pH (pHi) to [2]
O=[N+]([O-])c1ccc(O)c([N+](=O)[O-])c1 [DNP, dinitrophenol]	markedly potentiated	six-fold greater	–	–
C[C@H](N)C(=O)NCC(=O)N[C@H]1CSSC[C@@H](C(=O)O)NC(=O)[C@H](CO)NC(=O)[C@H]([C@@H](C)O)NC(=O)[C@H](Cc2ccccc2)NC(=O)[C@H]([C@@H](C)O)NC(=O)[C@H](CCCCN)NC(=O)[C@H](Cc2c[nH]c3ccccc23)NC(=O)[C@H](Cc2ccccc2)NC(=O)[C@H](Cc2ccccc2)NC(=O)[C@H](CC(N)=O)NC(=O)[C@H](CCCCN)NC1=O [SST, somatostatin]	–	–	induces apoptosis	6.5
